Measurements reported in publication PMC5635220.
Results are given in words; binding and its absence hold for the method and conditions named. In cells and extracts the contact can be indirect. Some entries that bind do so weakly or less than the wild type.

Molecular target: Epidermal growth factor receptor (human (endogenous in HCT116 and HBL-100)) (UniProt P00533)
Experiment: co-IP; HCT116^MUC1Full cells treated with control or EGF 20 ng/ml for 10 min at 37 C; lysed in PBS with 1% Triton-X-100; immunoprecipitation with anti-EGFR (DB81); immunoblot with anti-galectin-3

- binding: binds weakly
Substance: galectin-3 (endogenous, HCT116^MUC1Full cells) (from UniProt P17931 1-250)
